Measurements reported in PubChem BioAssay AID1259254 (NCATS, 2017).
This is a random part of about 59,000 deposited reagents. About 1,550 of them (2.6%) count as active. 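G2 share is only a proxy for re-replication; each gene was hit by three separate siRNAs, and active genes were retested.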 Entries without a mark were called inactive. Reagents against one gene are numbered here. Further read-outs or replicates are left out here. Not given: the amount of reagent.

- Screen: 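Genome-wide screen for genes that prevent DNA re-replication in cancer cells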 (primary screen)
- Cells: human HCT116 colorectal cancer cells
- Reagents: single siRNA against human genes
- Timing: 3 days
- Measured: 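Nuclei stained with Hoechst and imaged; cell-cycle phase assigned by DNA content; G2 share scaled per plate, non-targeting siRNA 0%, GMNN siRNA 100%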
- Direction: G2 robust z-score and G2 cells, % of GMNN control: higher = more G2 cells, more excess DNA replication
- Rule for the call: 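Active siRNAs have a G2 robust z of 5 or more median absolute deviations over the median, which in these data means about 38% or higher of GMNN control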

After knock-down of ABHD8 (GeneID 79575) #1, the screen gave G2 robust z-score -1.23; G2 cells, % of GMNN control -5.7.
Against ABHD8 (GeneID 79575) #2 the deposit lists G2 robust z-score -0.494; G2 cells, % of GMNN control -0.508.
Silencing of ABHD8 (GeneID 79575) #3 came out at: G2 robust z-score 0.534; G2 cells, % of GMNN control 6.72.
After knock-down of SNRNP200 (GeneID 23020) #1 the results were G2 robust z-score 1.3; G2 cells, % of GMNN control 12.1.
Against SNRNP200 (GeneID 23020) #2, the values are G2 robust z-score 1.75; G2 cells, % of GMNN control 15.3.
Depletion of SNRNP200 (GeneID 23020) #3 came out at: G2 robust z-score 0.526; G2 cells, % of GMNN control 6.67.
ALMS1P1 (GeneID 200420) #1 gave G2 robust z-score -0.0383; G2 cells, % of GMNN control 2.7.
Knock-down of ALMS1P1 (GeneID 200420) #2 resulted in: G2 robust z-score -0.371; G2 cells, % of GMNN control 0.358.
Knock-down of ALMS1P1 (GeneID 200420) #3 resulted in: G2 robust z-score -0.516; G2 cells, % of GMNN control -0.666.

Taken from above.
SNRNP200 (GeneID 23020) #3, G2 robust z-score → 0.526
Entry of ABHD8 (GeneID 79575) #3 under “G2 cells, % of GMNN control”: 6.72
Under “G2 robust z-score”, ALMS1P1 (GeneID 200420) #1 has -0.0383

Continued.
For FBH1 (GeneID 84893) #1, the values are G2 robust z-score 1.67; G2 cells, % of GMNN control 14.7.
FBH1 (GeneID 84893) #2 gave G2 robust z-score -0.597; G2 cells, % of GMNN control -1.23.
After knock-down of FBH1 (GeneID 84893) #3, the record shows G2 robust z-score -1.27; G2 cells, % of GMNN control -6.
Against FOXR2 (GeneID 139628) #1, the entry reads G2 robust z-score 7.67 (active); G2 cells, % of GMNN control 56.9.
For FOXR2 (GeneID 139628) #2 the deposit lists G2 robust z-score 0.00387; G2 cells, % of GMNN control 2.99.
FOXR2 (GeneID 139628) #3 gave G2 robust z-score 1.13; G2 cells, % of GMNN control 10.9.
Depletion of ARHGAP11B (GeneID 89839) #1 gave: G2 robust z-score 0.233; G2 cells, % of GMNN control 4.61.
ARHGAP11B (GeneID 89839) #2 showed G2 robust z-score -0.567; G2 cells, % of GMNN control -1.02.
ARHGAP11B (GeneID 89839) #3 gave G2 robust z-score -0.521; G2 cells, % of GMNN control -0.696.
ZFX (GeneID 7543) #1 gave G2 robust z-score 0.32; G2 cells, % of GMNN control 5.22.
After knock-down of ZFX (GeneID 7543) #2, the screen gave G2 robust z-score -1.3; G2 cells, % of GMNN control -6.16.
For ZFX (GeneID 7543) #3 the deposit lists G2 robust z-score 0.00023; G2 cells, % of GMNN control 2.97.
With knock-down of UPRT (GeneID 139596) #1 the results were G2 robust z-score -0.921; G2 cells, % of GMNN control -3.51.
UPRT (GeneID 139596) #2 showed G2 robust z-score -0.668; G2 cells, % of GMNN control -1.73.
Knock-down of UPRT (GeneID 139596) #3 resulted in: G2 robust z-score -0.605; G2 cells, % of GMNN control -1.29.
